# Laboratory results reported in the supplement of paper PMC9744312.
# Counter-ions that a name gives are not always drawn. The list shows a part of the results. The data scatter; read single values as rough.
# System: Peyronie's disease tunica albuginea primary fibroblasts
# Experiment: cell viability (DRAQ5 nuclear stain) relative to TGF-beta1-only control; higher = more viable cells
# Settings: 10 µM; TGF-beta1 10 ng/mL; 72 h
row,Compound,cell viability
1,Cc1cccc(Nc2ccccc2C(=O)O)c1C [Mefenamic Acid],100%
2,CCC(C)n1ncn(-c2ccc(N3CCN(c4ccc(OCC5COC(Cn6cncn6)(c6ccc(Cl)cc6Cl)O5)cc4)CC3)cc2)c1=O (centres undefined) [Itraconazole],96.6%
3,CCOc1cc(N)c(Cl)cc1C(=O)NCC1CN(Cc2ccc(F)cc2)CCO1 (centres undefined) [Mosapride Citrate],98.9%
4,CCOc1cc(N)c(Cl)cc1C(=O)NCC1CN(Cc2ccc(F)cc2)CCO1 (centres undefined) [Mosapride],93.6%
5,O=C(O)CCNC(=O)c1ccc(/N=N/c2ccc(O)c(C(=O)O)c2)cc1 [Balsalazide disodium],92.5%
6,C[C@H]1[C@H](OC(=O)CCC(=O)O)O[C@@H]2O[C@@]3(C)CC[C@H]4[C@H](C)CC[C@@H]1[C@@]24OO3 [Artesunate],100%
7,Cc1ccsc1C(=CCCN1CCC[C@@H](C(=O)O)C1)c1sccc1C [Tiagabine hydrochloride],88.4%
8,Cc1ccsc1C(=CCCN1CCC[C@@H](C(=O)O)C1)c1sccc1C [Tiagabine],93.9%
9,C[n+]1ccccc1C=NO [Pralidoxime Iodide],93%
10,O=C1OC(CN2CCOCC2)CN1/N=C/c1ccc([N+](=O)[O-])o1 (centres undefined) [Furaltadone HCl],89.3%
11,O=C1CCC(N2C(=O)c3ccccc3C2=O)C(=O)N1 (centres undefined) [Thalidomide],71.8%
12,c1cn2cc(-c3ccc4cn[nH]c4c3)nc(Nc3ccc(N4CCOCC4)cc3)c2n1 [Entospletinib (GS-9973)],106%
13,CC(=O)OCC1=C(C(=O)O)N2C(=O)[C@@H](NC(=O)Cc3cccs3)[C@H]2SC1 [Cephalothin],93.7%
14,Clc1ccc(C(Cn2ccnc2)OCc2csc3c(Cl)cccc23)c(Cl)c1 (centres undefined) [Sertaconazole nitrate],89.9%
15,CCOc1ccc(NC(=O)CC(C)O)cc1 (centres undefined) [Bucetin],84.9%
16,Cc1nc2n(c(=O)c1CCN1CCC(c3noc4cc(F)ccc34)CC1)CCCC2O (centres undefined) [Paliperidone],94.5%
17,CCCCc1nc(Cl)c(CO)n1Cc1ccc(-c2ccccc2-c2nnn[nH]2)cc1 [Losartan],87.8%
18,CCCCc1nc(Cl)c(CO)n1Cc1ccc(-c2ccccc2-c2nnn[nH]2)cc1 [Losartan Potassium (DuP 753)],85.4%
19,CC1(C)S[C@@H]2[C@H](NC(=O)Cc3ccccc3)C(=O)N2[C@H]1C(=O)O [Benzylpenicillin potassium],98.8%
20,CC1(C)S[C@@H]2[C@H](NC(=O)Cc3ccccc3)C(=O)N2[C@H]1C(=O)O [Penicillin G Sodium],94.9%
21,COc1cc(/C=C/C(=O)CC(=O)/C=C/c2ccc(O)c(OC)c2)ccc1O [Curcumin],96.6%
22,O=C(O)CSCC(=O)NC1CCSC1=O (centres undefined) [Erdosteine],91.5%
23,CC1(C)S[C@@H]2[C@H](NC(=O)[C@H](N)c3ccccc3)C(=O)N2[C@H]1C(=O)OCOC(=O)[C@@H]1N2C(=O)C[C@H]2S(=O)(=O)C1(C)C [Sultamicillin],113%
24,O=C1c2cccc3c2[C@H](CCC3)CN1[C@@H]1CN2CCC1CC2 [Palonosetron HCl],90.4%
25,CC(=O)Oc1ccccc1C(=O)O.CC(=O)Oc1ccccc1C(=O)O.NC(N)=O [Carbasalate Calcium],86.5%

# Pulled one by one from the list above, 2 records:
row,Compound,cell viability
13,CC(=O)OCC1=C(C(=O)O)N2C(=O)[C@@H](NC(=O)Cc3cccs3)[C@H]2SC1 [Cephalothin],93.7%
11,O=C1CCC(N2C(=O)c3ccccc3C2=O)C(=O)N1 (centres undefined) [Thalidomide],71.8%

# As entered above.
# CCCCc1nc(Cl)c(CO)n1Cc1ccc(-c2ccccc2-c2nnn[nH]2)cc1 [Losartan] | cell viability: 87.8%
# CC1(C)S[C@@H]2[C@H](NC(=O)Cc3ccccc3)C(=O)N2[C@H]1C(=O)O [Benzylpenicillin potassium] | cell viability: 98.8%
# CCOc1ccc(NC(=O)CC(C)O)cc1 (centres undefined) [Bucetin] | cell viability: 84.9%
# CCOc1cc(N)c(Cl)cc1C(=O)NCC1CN(Cc2ccc(F)cc2)CCO1 (centres undefined) [Mosapride] | cell viability: 93.6%

# (listing goes on)

row,Compound,cell viability
1,NCC[C@H](O)C(=O)N[C@@H]1C[C@H](N)[C@@H](O[C@H]2O[C@H](CN)[C@@H](O)[C@H](O)[C@H]2O)[C@H](O)[C@H]1O[C@H]1O[C@H](CO)[C@@H](O)[C@H](N)[C@H]1O [Amikacin disulfate],79.8%
2,NCC[C@H](O)C(=O)N[C@@H]1C[C@H](N)[C@@H](O[C@H]2O[C@H](CN)[C@@H](O)[C@H](O)[C@H]2O)[C@H](O)[C@H]1O[C@H]1O[C@H](CO)[C@@H](O)[C@H](N)[C@H]1O [Amikacin hydrate],88.4%
3,Nc1nc(O)c2ncn(CCC(CO)CO)c2n1 [Penciclovir],100%
4,Fc1ccc([C@@H]2CCNC[C@H]2COc2ccc3c(c2)OCO3)cc1 [Paroxetine mesylate],82.3%
5,Fc1ccc([C@@H]2CCNC[C@H]2COc2ccc3c(c2)OCO3)cc1 [Paroxetine HCl],80.6%
6,CN(C/C=C/C#CC(C)(C)C)Cc1cccc2ccccc12 [Terbinafine HCl],86.6%
7,CN(C/C=C/C#CC(C)(C)C)Cc1cccc2ccccc12 [Terbinafine],100%
8,O=c1[nH]cnc2c1ncn2[C@H]1CC[C@@H](CO)O1 [Didanosine],83.1%
9,CCCC(=O)OCOC(=O)C1=C(C)NC(C)=C(C(=O)OC)C1c1cccc(Cl)c1Cl (centres undefined) [Clevidipine Butyrate],96.4%
10,NC(CO)C(=O)NNCc1ccc(O)c(O)c1O (centres undefined) [Benserazide HCl],94.1%
11,C[C@H]1COc2c(N3CCN(C)CC3)c(F)cc3c(=O)c(C(=O)O)cn1c23 [Levofloxacin],99.2%
12,C[C@H]1COc2c(N3CCN(C)CC3)c(F)cc3c(=O)c(C(=O)O)cn1c23 [Levofloxacin hydrate],97.5%
13,C[N+](C)(C)CCO.[Cl-] [Choline Chloride],93.6%
14,C/C=C1\[C@H]2C=C(C)C[C@]1(N)c1ccc(=O)[nH]c1C2 [(-)-Huperzine A (HupA)],92.5%
15,O=c1[nH]cnc2[nH]ncc12 [Allopurinol Sodium],92.1%
16,CCOC(=O)[C@H](CCc1ccccc1)N[C@@H](C)C(=O)N1Cc2cc(OC)c(OC)cc2C[C@H]1C(=O)O [Moexipril HCl],91.3%
17,CN1CCC(OC(c2ccccc2)c2ccccc2)CC1 [Diphenylpyraline HCl],91.1%
18,COC(=O)c1ccc2c(C(=Nc3ccc(N(C)C(=O)CN4CCN(C)CC4)cc3)c3ccccc3)c(O)[nH]c2c1 [Nintedanib Ethanesulfonate Salt],66.5%
19,Clc1ccc(Nc2nnc(Cc3ccncc3)c3ccccc23)cc1 [Vatalanib (PTK787) 2HCl],73.1%
20,CC(=O)SCC(Cc1ccccc1)C(=O)NCC(=O)OCc1ccccc1 (centres undefined) [Racecadotril],88.6%
21,C[C@H](CCC(=O)O)[C@H]1CC[C@H]2[C@@H]3CC[C@@H]4C[C@H](O)CC[C@]4(C)[C@H]3CC[C@]12C [Lithocholic acid],92.5%
22,N[C@@H](CSCCCO)C(=O)O [Fudosteine],99.4%
23,CCNC(=O)[C@@H]1CCCN1C(=O)[C@H](CCCN=C(N)N)NC(=O)[C@H](CC(C)C)NC(=O)[C@@H](C)NC(=O)[C@H](Cc1ccc(O)cc1)NC(=O)[C@H](CO)NC(=O)[C@H](Cc1c[nH]c2ccccc12)NC(=O)[C@H](Cc1cnc[nH]1)NC(=O)[C@@H]1CCC(=O)N1 [Alarelin Acetate],97.6%
24,COC(=O)C1=C(C)NC(C)=C(C(=O)OC(C)C)C1c1cccc2nonc12 (centres undefined) [Isradipine],92.4%
25,CCOC(=O)Nc1ccc(NCc2ccc(F)cc2)nc1N [Flupirtine maleate],96%

row,Compound,cell viability
1,COCC(=O)Nc1c(I)c(C(=O)NCC(O)CO)c(I)c(C(=O)N(C)CC(O)CO)c1I (centres undefined) [Iopromide],90.6%
2,CN1CCN(c2cc3c(cc2F)c(=O)c(C(=O)O)cn3-c2ccc(F)cc2)CC1 [Difloxacin HCl],85.8%
3,O=C(O)CCCC[C@@H]1SC[C@@H]2NC(=O)N[C@@H]21 [Biotin (Vitamin B7)],99.7%
4,CC(C)C(=O)Nc1ccc([N+](=O)[O-])c(C(F)(F)F)c1 [Flutamide],83.6%
5,Cn1cnc([N+](=O)[O-])c1Sc1ncnc2[nH]cnc12 [Azathioprine],88.2%
6,CC(=O)Oc1cc2c(s1)CCN(C(C(=O)C1CC1)c1ccccc1F)C2 (centres undefined) [Prasugrel],95%
7,CC(=O)Oc1cc2c(s1)CCN(C(C(=O)C1CC1)c1ccccc1F)C2 (centres undefined) [Prasugrel Hydrochloride],71.1%
8,C#C[C@]1(O)CC[C@H]2[C@@H]3CCC4=CCCC[C@@H]4[C@H]3C(=C)C[C@@]21CC [Desogestrel],72.4%
9,CC(=O)OCC[N+](C)(C)C [Acetylcholine iodide],95.1%
10,S=C(NCc1ccc2c(c1)OCO2)N1CCN(c2ncnc3c2oc2ccccc23)CC1 [Amuvatinib (MP-470)],92.7%
11,OCCN1C[C@H](O)[C@@H](O)[C@H](O)[C@H]1CO [Miglitol],98.1%
12,CC1=C(C/C=C(\C)CCC[C@H](C)CCC[C@H](C)CCCC(C)C)C(=O)c2ccccc2C1=O [Vitamin K1],52.1%
13,Cc1cnc(C(=O)O)c[n+]1[O-] [Acipimox],93.2%
14,Cc1cc(S(=O)(=O)O)c2c(C)ccc(C(C)C)cc1-2 [Sodium gualenate],86.3%
15,O=C(O)C1(C(=O)O)CCC1.[NH2-].[NH2-].[Pt+2] [Carboplatin],92.7%
16,Cc1cc(N2CCN([C@@H]3CN[C@H](C(=O)N4CCSC4)C3)CC2)n(-c2ccccc2)n1 [Teneligliptin hydrobromide],82.6%
17,Nc1ccc(S(=O)(=O)Nc2cncc(Cl)n2)cc1 [Sulfalozine sodium],48.1%
18,COc1ccc(CN2CCN(C(c3ccc(F)cc3)c3ccc(F)cc3)CC2)c(OC)c1OC [Lomerizine 2HCl],94.9%
19,"COc1ccc(C(=O)c2ccccc2O)c(O)c1 [2,2′-Dihydroxy-4-methoxybenzophenone]",81.6%
20,COCCc1ccc(OCC(O)CNC(C)C)cc1 (centres undefined) [Metoprolol succinate],99.2%
21,COCCc1ccc(OCC(O)CNC(C)C)cc1 (centres undefined) [Metoprolol],81.9%
22,COCCc1ccc(OCC(O)CNC(C)C)cc1 (centres undefined) [Metoprolol Tartrate],91.6%
23,CCN1CCN(Cc2ccc(Nc3ncc(F)c(-c4cc(F)c5nc(C)n(C(C)C)c5c4)n3)nc2)CC1 [Abemaciclib],84.1%
24,CCN1CCN(Cc2ccc(Nc3ncc(F)c(-c4cc(F)c5nc(C)n(C(C)C)c5c4)n3)nc2)CC1,91.6%
